In article PMC12747965:

Molecular target: Flag-tagged p62 (Sequestosome 1, SQSTM1) (UniProt Q13501)
Experiment: affinity purification with mass spectrometry; HEK293T cells expressing Flag-tagged p62 or empty vector for 48 h; lysates incubated with anti-Flag affinity gels; co-immunoprecipitates digested with trypsin and analysed by mass spectrometry; three samples per group

binding: binds
Substance: TRIM25, endogenous (from UniProt Q14258 1-630)

Results are given in words; binding and its absence hold for the method and conditions named. Binding seen in cells or lysates may run through a third protein. A yes stands for co-enrichment or nearness to the bait. Other partners may have been found.
